Measured values from article PMC6925586.
No constants are given. Whether binding was seen depends on the method and setting. Binding seen in cells or lysates may run through a third protein. A result given as binding can be weak or reduced; the word gives no strength.

T1: NLRP7 (UniProt Q8WX94)
T1 sequence: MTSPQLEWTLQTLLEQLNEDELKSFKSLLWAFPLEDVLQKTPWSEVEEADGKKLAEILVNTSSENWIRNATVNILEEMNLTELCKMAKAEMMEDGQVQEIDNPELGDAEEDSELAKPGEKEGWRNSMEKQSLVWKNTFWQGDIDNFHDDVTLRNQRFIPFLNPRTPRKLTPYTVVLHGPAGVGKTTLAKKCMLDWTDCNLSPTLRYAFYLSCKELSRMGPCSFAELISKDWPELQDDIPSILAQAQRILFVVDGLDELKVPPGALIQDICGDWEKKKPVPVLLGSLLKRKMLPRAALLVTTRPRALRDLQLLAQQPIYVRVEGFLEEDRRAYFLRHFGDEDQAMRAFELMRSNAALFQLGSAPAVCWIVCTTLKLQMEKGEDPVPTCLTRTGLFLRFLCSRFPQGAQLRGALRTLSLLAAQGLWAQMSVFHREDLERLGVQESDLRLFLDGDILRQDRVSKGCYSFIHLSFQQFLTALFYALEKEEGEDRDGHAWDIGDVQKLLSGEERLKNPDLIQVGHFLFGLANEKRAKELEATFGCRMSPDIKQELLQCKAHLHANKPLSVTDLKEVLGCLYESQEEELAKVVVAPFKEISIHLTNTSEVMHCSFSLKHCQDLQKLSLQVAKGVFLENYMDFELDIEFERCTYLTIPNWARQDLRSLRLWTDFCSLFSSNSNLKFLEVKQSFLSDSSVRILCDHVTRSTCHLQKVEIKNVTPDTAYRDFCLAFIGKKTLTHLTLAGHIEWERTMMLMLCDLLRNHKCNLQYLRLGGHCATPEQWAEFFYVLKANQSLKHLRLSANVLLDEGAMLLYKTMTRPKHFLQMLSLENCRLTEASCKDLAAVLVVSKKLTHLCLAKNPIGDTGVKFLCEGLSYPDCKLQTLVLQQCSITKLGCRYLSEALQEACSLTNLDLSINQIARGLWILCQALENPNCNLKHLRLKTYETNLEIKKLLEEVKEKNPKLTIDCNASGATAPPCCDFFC

B1: TG2-W241A (enzyme, UniProt P21980 1-687)
chain: MAEELVLERCDLELETNGRDHHTADLCREKLVVRRGQPFWLTLHFEGRNYEASVDSLTFSVVTGPAPSQEAGTKARFPLRDAVEEGDWTATVVDQQDCTLSLQLTTPANAPIGLYRLSLEASTGYQGSSFVLGHFILLFNAWCPADAVYLDSEEERQEYVLTQQGFIYQGSAKFIKNIPWNFGQFEDGILDICLILLDVNPKFLKNAGRDCSRRSSPVYVGRVVSGMVNCNDDQGVLLGRADNNYGDGVSPMSWIGSVDILRRWKNHGCQRVKYGQCWVFAAVACTVLRCLGIPTRVVTNYNSAHDQNSNLLIEYFRNEFGEIQGDKSEMIWNFHCWVESWMTRPDLQPGYEGWQALDPTPQEKSEGTYCCGPVPVRAIKEGDLSTKYDAPFVFAEVNADVVDWIQQDDGSVHKSINRSLIVGLKISTKSVGRDEREDITHTYKYPEGSSEEREAFTRANHLNKLAEKEETGMAMRIRVGQSMNMGSDFDVFAHITNNTAEEYVCRLLLCARTVSYNGILGPECGTKYLLNLNLEPFSEKSVPLCILYEKYRDCLTESNLIKVRALLVEPVINSYLLAERDLYLENPEIKIRILGEPKQKRKLVAEVSLQNPLPVALEGCTFTVEGAGLTEEQKTVEIPDPVEAGEEVKVRMDLLPLHMGLHKLVVNFESDKLKAVKGFRNVIIGPA
B2: wild-type tissue transglutaminase (TG2), lentivirally expressed in RenCa cells (enzyme, UniProt P21980 1-687)
chain: MAEELVLERCDLELETNGRDHHTADLCREKLVVRRGQPFWLTLHFEGRNYEASVDSLTFSVVTGPAPSQEAGTKARFPLRDAVEEGDWTATVVDQQDCTLSLQLTTPANAPIGLYRLSLEASTGYQGSSFVLGHFILLFNAWCPADAVYLDSEEERQEYVLTQQGFIYQGSAKFIKNIPWNFGQFEDGILDICLILLDVNPKFLKNAGRDCSRRSSPVYVGRVVSGMVNCNDDQGVLLGRWDNNYGDGVSPMSWIGSVDILRRWKNHGCQRVKYGQCWVFAAVACTVLRCLGIPTRVVTNYNSAHDQNSNLLIEYFRNEFGEIQGDKSEMIWNFHCWVESWMTRPDLQPGYEGWQALDPTPQEKSEGTYCCGPVPVRAIKEGDLSTKYDAPFVFAEVNADVVDWIQQDDGSVHKSINRSLIVGLKISTKSVGRDEREDITHTYKYPEGSSEEREAFTRANHLNKLAEKEETGMAMRIRVGQSMNMGSDFDVFAHITNNTAEEYVCRLLLCARTVSYNGILGPECGTKYLLNLNLEPFSEKSVPLCILYEKYRDCLTESNLIKVRALLVEPVINSYLLAERDLYLENPEIKIRILGEPKQKRKLVAEVSLQNPLPVALEGCTFTVEGAGLTEEQKTVEIPDPVEAGEEVKVRMDLLPLHMGLHKLVVNFESDKLKAVKGFRNVIIGPA
B3: tissue transglutaminase (TG2), overexpressed in induced Swiss 3T3 cells (enzyme, UniProt P21980 1-687)
chain: MAEELVLERCDLELETNGRDHHTADLCREKLVVRRGQPFWLTLHFEGRNYEASVDSLTFSVVTGPAPSQEAGTKARFPLRDAVEEGDWTATVVDQQDCTLSLQLTTPANAPIGLYRLSLEASTGYQGSSFVLGHFILLFNAWCPADAVYLDSEEERQEYVLTQQGFIYQGSAKFIKNIPWNFGQFEDGILDICLILLDVNPKFLKNAGRDCSRRSSPVYVGRVVSGMVNCNDDQGVLLGRWDNNYGDGVSPMSWIGSVDILRRWKNHGCQRVKYGQCWVFAAVACTVLRCLGIPTRVVTNYNSAHDQNSNLLIEYFRNEFGEIQGDKSEMIWNFHCWVESWMTRPDLQPGYEGWQALDPTPQEKSEGTYCCGPVPVRAIKEGDLSTKYDAPFVFAEVNADVVDWIQQDDGSVHKSINRSLIVGLKISTKSVGRDEREDITHTYKYPEGSSEEREAFTRANHLNKLAEKEETGMAMRIRVGQSMNMGSDFDVFAHITNNTAEEYVCRLLLCARTVSYNGILGPECGTKYLLNLNLEPFSEKSVPLCILYEKYRDCLTESNLIKVRALLVEPVINSYLLAERDLYLENPEIKIRILGEPKQKRKLVAEVSLQNPLPVALEGCTFTVEGAGLTEEQKTVEIPDPVEAGEEVKVRMDLLPLHMGLHKLVVNFESDKLKAVKGFRNVIIGPA

Tests used:
[1] = target: T1, NLRP7; experiment: co-IP; Hec1a endometrial cancer cells
[2] = target: PDGFR (RenCa cells) (mouse (endogenous in RenCa)); experiment: co-IP; RenCa mouse RCC cells transduced with lentiviral TG2 constructs
[3] = target: platelet-derived growth factor beta-receptor (mouse (endogenous in Swiss 3T3)); experiment: co-IP; Swiss 3T3 cells induced to overexpress TG2, treated with the NO donor SNAP for 48 hours; with SNAP less TG2 complex with ITGβ-1 and SDC-4, more with PDGFR-β

Row | Molecule | binding [2] | other results
1 | Rab5 | – | binding [1]: binds
2 | B1 | binds | –
3 | B2 | binds | –
4 | B3 | – | binding [3]: binds
